Results are given in words; binding and its absence hold for the method and conditions named. In cells and extracts the contact can be indirect. Binding calls can cover weak binding; strength is not graded here. Values belong to the substance of their own block, whether it stands above or below them.
How the values were obtained:
[1] = biological target: green fluorescence protein (GFP)-tagged HIF-1α (UniProt Q16665); test: co-IP; HEK293T co-transfected with HA-p300, GFP-HIF-1α and FGFR2-FLAG; hypoxia 8 h; precipitated with anti-HA affinity gel; immunoblot
[2] = biological target: Gal4-CAD (aa. 776–826 of HIF-1α) (UniProt Q16665); test: co-IP; HEK293T overexpressing Gal4-CAD, HA-p300 and FGFR2-FLAG; hypoxia 8 h; precipitated with anti-Gal4; immunoblot
Full-length FGFR2-3XFLAG [3] = biological target: Full-length FGFR2-3XFLAG (UniProt P21802); test: co-IP; HEK293T co-transfected with FGFR2-FLAG and Gal4-CAD; hypoxia 8 h; precipitated with anti-FLAG affinity gel; blot with anti-Gal4
Full-length FGFR2-3XFLAG [4] = biological target: Full-length FGFR2-3XFLAG (UniProt P21802); test: co-IP; HEK293T co-transfected with FGFR2-FLAG and HA-HIF-1α (or HIF-2α); normoxia or hypoxia (1% O2) 8 h; lysates precipitated with IgG, anti-FLAG or anti-FGFR2; immunoblot

Chains of the proteins cited; added tags and fusions are not shown. Lines headed by an entry give the natural chain unless they say otherwise; changes in a name come on top.
UniProt Q16665: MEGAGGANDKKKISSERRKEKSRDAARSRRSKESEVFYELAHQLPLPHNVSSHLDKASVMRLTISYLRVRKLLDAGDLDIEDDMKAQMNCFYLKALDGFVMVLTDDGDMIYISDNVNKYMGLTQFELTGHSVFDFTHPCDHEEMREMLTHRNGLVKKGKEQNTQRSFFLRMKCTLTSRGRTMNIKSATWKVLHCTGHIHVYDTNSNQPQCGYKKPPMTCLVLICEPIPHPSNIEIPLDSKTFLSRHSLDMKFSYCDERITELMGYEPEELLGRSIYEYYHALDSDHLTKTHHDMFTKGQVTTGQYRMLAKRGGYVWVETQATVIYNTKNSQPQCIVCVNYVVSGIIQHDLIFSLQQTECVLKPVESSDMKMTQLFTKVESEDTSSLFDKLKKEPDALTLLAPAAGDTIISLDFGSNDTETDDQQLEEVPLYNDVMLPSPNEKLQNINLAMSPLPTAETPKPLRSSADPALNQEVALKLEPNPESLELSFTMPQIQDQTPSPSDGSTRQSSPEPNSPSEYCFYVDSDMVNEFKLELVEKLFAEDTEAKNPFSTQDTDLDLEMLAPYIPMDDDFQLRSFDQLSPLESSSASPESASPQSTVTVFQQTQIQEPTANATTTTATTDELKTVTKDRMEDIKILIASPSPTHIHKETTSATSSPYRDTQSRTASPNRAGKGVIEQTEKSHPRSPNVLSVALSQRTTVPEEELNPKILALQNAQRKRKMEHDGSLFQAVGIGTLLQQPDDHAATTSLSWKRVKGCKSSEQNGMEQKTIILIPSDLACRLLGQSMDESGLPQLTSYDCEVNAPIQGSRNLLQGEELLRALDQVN
UniProt P21802: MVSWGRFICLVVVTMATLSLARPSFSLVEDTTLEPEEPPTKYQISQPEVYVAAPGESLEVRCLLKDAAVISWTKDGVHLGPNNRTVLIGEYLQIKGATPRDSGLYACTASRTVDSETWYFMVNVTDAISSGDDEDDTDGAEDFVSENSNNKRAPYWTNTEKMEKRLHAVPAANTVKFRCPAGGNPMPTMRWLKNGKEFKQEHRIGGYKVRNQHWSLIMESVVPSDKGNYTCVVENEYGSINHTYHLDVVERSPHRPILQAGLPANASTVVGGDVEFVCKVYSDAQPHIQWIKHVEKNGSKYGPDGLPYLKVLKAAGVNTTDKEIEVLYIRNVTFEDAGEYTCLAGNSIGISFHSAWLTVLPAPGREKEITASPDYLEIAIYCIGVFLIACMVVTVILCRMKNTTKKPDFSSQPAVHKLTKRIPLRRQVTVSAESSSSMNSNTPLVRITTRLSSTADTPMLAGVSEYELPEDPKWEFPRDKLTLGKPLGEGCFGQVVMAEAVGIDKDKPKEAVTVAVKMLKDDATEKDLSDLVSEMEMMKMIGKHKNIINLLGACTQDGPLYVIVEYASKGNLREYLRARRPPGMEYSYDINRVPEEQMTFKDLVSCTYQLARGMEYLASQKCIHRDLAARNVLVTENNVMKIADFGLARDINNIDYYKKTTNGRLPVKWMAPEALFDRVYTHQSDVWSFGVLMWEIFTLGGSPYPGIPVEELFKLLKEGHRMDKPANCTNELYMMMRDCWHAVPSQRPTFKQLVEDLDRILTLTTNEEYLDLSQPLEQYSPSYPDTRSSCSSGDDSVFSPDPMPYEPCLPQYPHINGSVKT
UniProt Q99814: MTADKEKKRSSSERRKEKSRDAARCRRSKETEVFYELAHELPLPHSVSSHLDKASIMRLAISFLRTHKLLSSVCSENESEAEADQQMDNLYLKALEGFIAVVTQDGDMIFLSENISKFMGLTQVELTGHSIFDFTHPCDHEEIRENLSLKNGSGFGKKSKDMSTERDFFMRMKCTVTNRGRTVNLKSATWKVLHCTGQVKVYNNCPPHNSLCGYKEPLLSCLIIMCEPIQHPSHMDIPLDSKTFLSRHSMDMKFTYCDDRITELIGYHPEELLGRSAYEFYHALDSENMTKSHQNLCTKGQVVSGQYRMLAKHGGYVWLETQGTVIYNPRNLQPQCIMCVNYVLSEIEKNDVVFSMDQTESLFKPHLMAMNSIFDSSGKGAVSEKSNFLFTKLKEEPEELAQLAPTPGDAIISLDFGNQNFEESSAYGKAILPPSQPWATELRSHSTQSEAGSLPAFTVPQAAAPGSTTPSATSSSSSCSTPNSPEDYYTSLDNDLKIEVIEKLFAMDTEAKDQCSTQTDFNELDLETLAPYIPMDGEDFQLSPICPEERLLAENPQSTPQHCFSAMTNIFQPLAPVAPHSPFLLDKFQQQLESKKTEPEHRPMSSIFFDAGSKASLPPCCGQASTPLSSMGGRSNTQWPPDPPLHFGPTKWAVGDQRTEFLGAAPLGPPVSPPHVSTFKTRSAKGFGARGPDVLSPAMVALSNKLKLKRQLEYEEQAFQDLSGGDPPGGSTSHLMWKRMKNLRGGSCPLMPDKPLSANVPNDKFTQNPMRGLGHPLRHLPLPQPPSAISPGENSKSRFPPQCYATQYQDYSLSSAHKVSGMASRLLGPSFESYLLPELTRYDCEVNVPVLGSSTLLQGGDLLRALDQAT

binding [1]: binds
binding [2]: binds
Substance: Full-length FGFR2-3XFLAG (from UniProt P21802-3) (receptor)

binding (Full-length FGFR2-3XFLAG [3]): binds
Substance: Gal4-CAD (aa. 776–826 of HIF-1α) (from UniProt Q16665 776-826) (domain or fragment)

binding (Full-length FGFR2-3XFLAG [4]): binds
Substance: HIF-2α (ectopically expressed) (from UniProt Q99814 1-870)
